Results deposited as PubChem BioAssay AID720505 (Drosophila RNAi Screening Center, 2013).
In all, the deposit lists about 20,000 reagents; shown is a random part of those that have a named target and a result. Over the whole deposit, about 2,100 (10%) are marked active. 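Raw plate signals without normalisation; calls rest on control-based scores that were not deposited; replicate 2 separates called from uncalled poorly.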 Unmarked entries are inactive. A plus sign joins genes that one reagent is predicted to hit. Not given: the amount of reagent, the time to read-out.

Purpose: 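Fly regulators or components of the CRAC channel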 (primary screen)
System: Drosophila S2R+ cells
Knock-down reagent: long dsRNA against Drosophila genes
Treatment: thapsigargin (2 µM) in calcium-free buffer to empty internal stores, then 2 mM calcium added back
Read-out: 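Stores emptied by 2 µM thapsigargin without calcium, then 2 mM calcium re-added; fluo-4 fluorescence followed by FLIPR in 384-well plates, per-well averaged endpoint, raw; two screen passes, some wells retested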
Scale: calcium signal and retest calcium signal: higher = more calcium entry after store depletion
Hit rule: 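Knock-downs counted as hits when calcium entry dropped relative to STIM1 positive and Rho1 negative controls present on each plate; roughly 1500 genes called, with reductions of differing size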
Meaning of the calls: active = called as lowering calcium entry; inactive = not called

Gene | DRSC id | calcium signal, replicate 1 | calcium signal, replicate 2 | retest calcium signal, replicate 1 | retest calcium signal, replicate 2
bru2 (GeneID 250811) | DRSC01246 | 59.4 (active) | 127 | – | –
bru2 (GeneID 250811) | DRSC01247 | 123 | 86.9 | – | –
bru2 (GeneID 250811) | DRSC01249 | 229 | 104 | – | –
bru2 (GeneID 250811) | DRSC01250 | 189 | 103 | – | –
bru2 (GeneID 250811) | DRSC02557 | 103 | 133 | – | –
ATPsyndelta (GeneID 31950) | DRSC18248 | 38 (active) | 54.8 | – | –
CG10063 (GeneID 38764) | DRSC09688 | 64.6 | 70.5 | – | –
CG9932 (GeneID 34701) | DRSC03275 | 76 (active) | 88.4 | – | –
Golgin245 (GeneID 37702) | DRSC04374 | 175 | 96.1 | – | –
Golgin245 (GeneID 37702) | DRSC22012 | 98.7 | 140 | – | –
Pdss2 (GeneID 40323) | DRSC11625 | 132 | 90.3 | – | –
CG9380 (GeneID 38011) | DRSC04549 | 102 | 145 | – | –
Jabba (GeneID 37164) | DRSC06521 | 75.1 (active) | 155 | – | –
atl (GeneID 42934) | DRSC16089 | 220 | 194 | – | –
CG9512 (GeneID 32419) | DRSC20189 | 123 | 109 | – | –
Ctl1 (GeneID 38523) | DRSC08303 | 100 | 98.6 | – | –
Stlk (GeneID 3355135) | DRSC22687 | 63.2 | 122 | – | –
CG10947 (GeneID 35309) | DRSC02111 | 78.9 | 103 | – | –
CG31524 (GeneID 318781) | DRSC22014 | 91.1 | 130 | – | –
CG15905 (GeneID 37257) | DRSC06591 | 168 | 167 | – | –
CG7884 (GeneID 32914) | DRSC20065 | 63.4 (active) | 161 | – | –
sofe (GeneID 32016) | DRSC19751 | 110 | 75.9 | – | –
scrib (GeneID 44448) | DRSC15809 | 114 | 138 | – | –
scrib (GeneID 44448) | DRSC17051 | 67.3 (active) | 108 | – | –
unc-5 (GeneID 36703) | DRSC05545 | 119 | 118 | 6409 | 94.9
unc-5 (GeneID 36703) | DRSC07711 | 96.7 | 161 | – | –
unc-5 (GeneID 36703) | DRSC07712 | 84.6 | 184 | – | –
Ac3 (GeneID 35419) | DRSC03692 | 189 | 115 | – | –
CG13685 (GeneID 38869) | DRSC10043 | 92.5 | 74.4 | – | –
twy (GeneID 39330) | DRSC10562 | 46.1 | 88.6 | – | –
CG10472 (GeneID 38688) | DRSC09730 | 72.3 (active) | 104 | – | –
CG13947 (GeneID 33250) | DRSC00365 | 148 | 156 | – | –
CG30466 (GeneID 246629) | DRSC05556 | 90.6 | 123 | – | –
Gga (GeneID 31902) | DRSC18260 | 158 | 154 | – | –
Ccp84Ab (GeneID 40824) | DRSC12587 | 105 | 158 | – | –
tin (GeneID 42536) | DRSC17083 | 73.1 (active) | 107 | – | –
tin (GeneID 42536) | DRSC22853 | 102 | 98.8 | – | –
tin (GeneID 42536) | DRSC23248 | 81.5 | 135 | – | –
CG11141 (GeneID 35672) | DRSC06048 | 153 | 91.2 | – | –
SkpE (GeneID 32997) | DRSC19431 | 168 | 96 | – | –
CG4598 (GeneID 34315) | DRSC02763 | 167 | 179 | – | –
mld (GeneID 2768685) | DRSC14622 | 253 | 175 | – | –
slow (GeneID 38540) | DRSC08589 | 98.8 | 98.1 | – | –
slow (GeneID 38540) | DRSC08590 | 76.2 | 84.1 | – | –
CG18542 + CG32939 | DRSC15342 | 111 | 111 | – | –
Hmg-2 (GeneID 37407) | DRSC04554 | 123 | 81.2 | – | –
Sodq (GeneID 43133) | DRSC15924 | 258 | 185 | – | –
RpS17 (GeneID 39088) | DRSC11271 | 33.3 (active) | 76.9 | – | –
CG14625 (GeneID 31066) | DRSC18633 | 134 | 130 | – | –
CG30161 (GeneID 37945) | DRSC22141 | 51.8 (active) | 170 | – | –
CG33465 (GeneID 3885587) | DRSC05587 | 70.7 | 81 | – | –
CG13151 (GeneID 36374) | DRSC06276 | 117 | 166 | – | –
CG8768 (GeneID 36400) | DRSC07259 | 150 | 137 | – | –
dlp (GeneID 39596) | DRSC10281 | 104 | 92.3 | – | –
dlp (GeneID 39596) | DRSC10472 | 79 | 231 | – | –
MCPH1 (GeneID 36272) | DRSC06309 | 154 | 157 | – | –
MCPH1 (GeneID 36272) | DRSC07308 | 41.8 (active) | 142 | – | –
MCPH1 (GeneID 36272) | DRSC22536 | 124 | 135 | – | –
CG31759 (GeneID 326158) | DRSC01230 | 259 | 97.4 | – | –
swm (GeneID 35235) | DRSC02012 | 100 | 98 | 91.4 | 121
swm (GeneID 35235) | DRSC21831 | 49.2 (active) | 92.7 | – | –
Rab1 (GeneID 42524) | DRSC16808 | 116 | 85.6 | – | –
CG43366 (GeneID 35519) | DRSC04857 | 130 | 183 | – | –
CG43366 (GeneID 35519) | DRSC04864 | 89.9 (active) | 120 | – | –
ALiX (GeneID 43330) | DRSC14564 | 124 | 91.6 | – | –
SoYb (GeneID 34331) | DRSC02901 | 68.8 | 131 | – | –
CG10814 (GeneID 36481) | DRSC06004 | 165 | 131 | – | –
Dh44-R1 (GeneID 36601) | DRSC07172 | 150 | 123 | – | –
Polr1D + DCTN6-p27 | DRSC02094 | 192 | 73.5 | – | –
pelo (GeneID 34286) | DRSC03588 | 98.8 | 90.5 | – | –
PK1-R (GeneID 41713) | DRSC16577 | 89.4 | 125 | – | –
MME1 (GeneID 33987) | DRSC02714 | 97.8 | 240 | – | –
trk (GeneID 34376) | DRSC03625 | 179 | 180 | – | –
Ddc (GeneID 35190) | DRSC03314 | 195 | 76.4 | – | –
CG18004 (GeneID 36154) | DRSC06705 | 157 | 132 | – | –
l(3)80Fj (GeneID 3355040) | DRSC20986 | 114 | 10872 | – | –
l(3)80Fj (GeneID 3355040) | DRSC20989 | 114 | 113 | – | –
CG30091 (GeneID 246449) | DRSC21809 | 175 | 111 | – | –
ItgaPS5 (GeneID 37732) | DRSC04501 | 125 | 213 | – | –
CG2577 (GeneID 32188) | DRSC19863 | 107 | 90.5 | – | –
CG2577 (GeneID 32188) | DRSC23309 | 124 | 135 | – | –
CG7546 (GeneID 38844) | DRSC10871 | 82.2 | 147 | 125 | 147
CG7546 (GeneID 38844) | DRSC22148 | 117 | 135 | – | –
